What is called kcat is the number of substrate molecules converted per active site and unit of time at saturation. One may read the KM as the substrate concentration at which the rate is half of its maximum.

From the supplement of paper PMC7125110 come the findings set out here.

± gives the standard error. For some of these results: The uncertainty is large for many entries.

First the molecules themselves.
B1: glmS ribozyme (parent)
chain: AUAAAAGCGCCAGAACUACAGAAAUGUAGUUGACGAGGAGGAGGUUUAUCGAAUUUUCGGCGGAUGCCUCCAAA

The first data set covers variants of B1. Description: kcat; higher = faster cleavage; RNA array. The note with it: with glucosamine-6-phosphate. A digest of the protocol: (§1)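 Barcoded ribozyme variants on sequenced MiSeq chips were transcribed in situ by E. coli RNA polymerase and followed at 37 °C through a hybridised Cy3 probe. Glucosamine-6-phosphate at 40 μM to 10 mM in HEPES/KCl/Mg(OAc)2 buffer was flowed in, and tiles were imaged over ~14 h. Signals were normalised to baseline and to non-cleaving reference variants, and per-tile medians were fit to one- or two-exponential decays to give kobs. Weighted Michaelis–Menten fits across concentrations gave kcat and KM.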
Consider AUAAAAGCGCCAGAACUACAGAAAUGUAGUUGGCGAGGAGGAGGUUUAUCGGAUUUUCGGCGGAUGCCUCCAAA [A33G A52G], for which the kcat was less than 1e-05 s⁻¹. For AUAAAAGCGCCAGAACUACAGAAAUGUAGUUCACGAGGAGGAGGUUUAUCGAAUUAUCGGCGGAUGCCUCCAAA [G32C U56A], the kcat is 7.63e-05 ± 4.4e-05 s⁻¹.

As to AUAAAAGCGCCAGAACUACAGAAAUGUAGUUGAUGAGGAGGAGGUUUAUCGAAUUUUUGGCGGAUGCCUCCAAA [C34U C58U], the kcat was less than 1e-05 s⁻¹. AUAAAAGCGCCAGAACUACAGAAAUGUAGUUGACGAUGAGGAGGUUUAUGGAAUUUUCGGCGGAUGCCUCCAAA [G37U C50G]: the kcat was 2.87e-05 ± 1.5e-05 s⁻¹.

On to AUAAAAGCGCCAGAACUACAGAAAUGUAGUUGACGCGGAGGAGGUUUAUCGAAUUUUCAGCGGAUGCCUCCAAA [A36C G59A], for which the catalytic constant (kcat) is less than 1e-05 s⁻¹.

On to AUAAAAGCGCCAGAACUACAGAAAUGUAGUUGAAGAGGAGGAGGUUUAUGGAAUUUUCGGCGGAUGCCUCUAAA [C34A C50G C71U], for which the kcat is 9.44e-05 ± 5e-05 s⁻¹.

Turning to AUAAAAGCGCCAGAACUACAGAAAUGUAGUUCACGAGGAGGAGGUUUAUCGAAUUUUCGGCGGAUGCCUCUAAA [G32C C71U], the kcat turned out to be 0.000245 ± 0.00018 s⁻¹. As for AUAAAAGCGCCAGAACUACAGAAAUGUAGUUGACGACGAGGAGGUUUAUCGAAUUUUCGGCGGAUGCGUCCAAA [G37C C68G], the turnover number (kcat) came to 1.8e-05 ± 3.8e-06 s⁻¹. As to AUAAAAGCGCCAGAACUACAGAAAUGUAGUUGAAGAGGAGGAGGUUUAUGGAAUUUUCGGCGGAUGCCUCCAAA [C34A C50G], the kcat came out at 3.35e-05 ± 1.8e-05 s⁻¹. For the variant AUAAAAGCGCCAGAACUACAGAAAUGUAGUUGACGCGGAGGAGGUUUAUCGGAUUUUCGGCGGAUUCCUUCAAA [A36C A52G G66U C70U], the kcat was 1.1e-05 ± 7e-06 s⁻¹.

Turning to AUAAAAGCGCCAGAACUACAGAAAUGUAGUUGGCGAGGAGGAGGUUUAUCGAAUUUUCGGGGGAUGCCUCCAAA [A33G C61G], the kcat was 2.02e-05 ± 1.8e-05 s⁻¹. Take AUAAAAGCGCCAGAACUACAGAAAUGUAGUUGCCGAGGAGGAGGUUUAUCGAAUCUUCGGCGGAUGCCUCCAAA [A33C U55C]: the kcat was less than 1e-05 s⁻¹. On to AUAAAAGCGCCAGAACUACAGAAAUGUAGUUGACGACGGGGAGGUUUAUCGAAUUUUCGGCGGAUGCCUCCAAA [G37C A39G], for which the kcat turned out to be 0.000123 ± 9.4e-05 s⁻¹. As to AUAAAAGCGCCAGAACUACAGAAAUGUAGUUGACGACGUGGAGGUUUAUCGAAUUUUCGGCGGAUGCCUCCAAA [G37C A39U], the kcat worked out at 1.36e-05 ± 1e-06 s⁻¹. On the same count and under the same terms, the figure for AUAAAAGCGCCAGAACUACAGAAAUGUAGUUGACGUGGAGGAGGUUUAUCGAAUAUUCGGCGGAUGCCUCCAAA [A36U U55A] is less than 1e-05 s⁻¹; for AUAAAAGCGCCAGAACUACAGAAAUGUAGUUGACCAGGAUGAGGUUUAUCGAAUUUUCGGCGGAUGCCUCCAAA [G35C G40U] it is less than 1e-05 s⁻¹; for AUAAAAGCGCCAGAACUACAGAAAUGUAGUUGACGUGUAGGAGGUUUAUCGAAUUUUCGGCGGAUGCCUCCAAA [A36U G38U] it is less than 1e-05 s⁻¹.

As for AUAAAAGCGCCAGAACUACAGAAAUGUAGUUGACGAAGAGGAGGUUUAUGGAACUUUCGGCGGAUGCCUCCAAA [G37A C50G U54C], the kcat came out at 3.67e-05 ± 1.9e-05 s⁻¹.

Turning to AUAAAAGCGCCAGAACUACAGAAAUGUAGUUGAUGAGGAGGAGGUUUAUGGAAUUUUCGGCGGAUGCCUCCAAA [C34U C50G], the kcat was 8.9e-05 ± 5.4e-05 s⁻¹. For AUAAAAGCGCCAGAACUACAGAAAUGUAGUUGCCGAGGAGGAGGUUUAUAGAAUUUUCGGCGGAUGCCUCCAAA [A33C C50A], the kcat was less than 1e-05 s⁻¹. Still for that read-out and setting: as for AUAAAAGCGCCAGAACUACAGAAAUGUAGUUGCCGAGGAGGAGGUUUAUGGAAUUUUCGGCGGAUGCCUCCAAA [A33C C50G], the figure is 2.17e-05 ± 2e-05 s⁻¹.

In the next data set the parent is B1. The data set can be described thus: self-cleavage kobs at 40 uM GlcN6P; higher = faster cleavage; RNA array. The note with it: with glucosamine-6-phosphate. A digest of the protocol: as §1
Consider AUAAAAGCGCCAGAACUACAGAAAUGUAGUUGACGAUGAGGAGGUUUAUGGAAUUUUCGGCGGAUGCCUCCAAA [G37U C50G], for which the “self-cleavage kobs at 40 uM GlcN6P” value was 2.63e-05 ± 2e-05 s⁻¹. For AUAAAAGCGCCAGAACUACAGAAAUGUAGUUGAAGAGGAGGAGGUUUAUGGAAUUUUCGGCGGAUGCCUCCAAA [C34A C50G], the “self-cleavage kobs at 40 uM GlcN6P” value turned out to be 3.09e-05 ± 1.7e-05 s⁻¹. As to AUAAAAGCGCCAGAACUACAGAAAUGUAGUUGCCGAGGAGGAGGUUUAUGGAAUUUUCGGCGGAUGCCUCCAAA [A33C C50G], the “self-cleavage kobs at 40 uM GlcN6P” value came out at 2.49e-05 ± 1.3e-05 s⁻¹.

Variants of B1 are the subject of the next data set. Description: self-cleavage kobs at 640 uM GlcN6P; higher = faster cleavage; RNA array. The conditions noted are these: with glucosamine-6-phosphate. The gist of the method:
as §1
As for AUAAAAGCGCCAGAACUACAGAAAUGUAGUUGACGAUGAGGAGGUUUAUGGAAUUUUCGGCGGAUGCCUCCAAA [G37U C50G], the “self-cleavage kobs at 640 uM GlcN6P” value was determined as 3.33e-05 ± 1.7e-05 s⁻¹. As for AUAAAAGCGCCAGAACUACAGAAAUGUAGUUCACGAGGAGGAGGUUUAUCGAAUUUUCGGCGGAUGCCUCUAAA [G32C C71U], the “self-cleavage kobs at 640 uM GlcN6P” value worked out at 3.52e-05 ± 1.9e-05 s⁻¹. Consider AUAAAAGCGCCAGAACUACAGAAAUGUAGUUGACGACGAGGAGGUUUAUCGAAUUUUCGGCGGAUGCGUCCAAA [G37C C68G], for which the “self-cleavage kobs at 640 uM GlcN6P” value turned out to be 1.91e-05 ± 1.6e-05 s⁻¹. The same measure, in the same setting: the figure for AUAAAAGCGCCAGAACUACAGAAAUGUAGUUGACGAAGAGGAGGUUUAUGGAACUUUCGGCGGAUGCCUCCAAA [G37A C50G U54C] is 3.08e-05 ± 2.2e-05 s⁻¹.

In another data set the parent is B1. The data set can be described thus: self-cleavage kobs at 2500 uM GlcN6P; higher = faster cleavage; RNA array. The note with it: with glucosamine-6-phosphate. A digest of the protocol: as §1
AUAAAAGCGCCAGAACUACAGAAAUGUAGUUGACGAUGAGGAGGUUUAUGGAAUUUUCGGCGGAUGCCUCCAAA [G37U C50G]: the “self-cleavage kobs at 2500 uM GlcN6P” value came to 0.00214 ± 0.0014 s⁻¹. Regarding AUAAAAGCGCCAGAACUACAGAAAUGUAGUUGACGACGAGGAGGUUUAUCGAAUUUUCGGCGGAUGCGUCCAAA [G37C C68G], the “self-cleavage kobs at 2500 uM GlcN6P” value was found to be 1.93e-05 ± 1.5e-05 s⁻¹. As for AUAAAAGCGCCAGAACUACAGAAAUGUAGUUGAAGAGGAGGAGGUUUAUGGAAUUUUCGGCGGAUGCCUCCAAA [C34A C50G], the “self-cleavage kobs at 2500 uM GlcN6P” value amounted to 2.38e-05 ± 2.1e-05 s⁻¹.

The variants in another data set derive from B1. Description: self-cleavage kobs at 160 uM GlcN6P; higher = faster cleavage; RNA array. The conditions noted are these: with glucosamine-6-phosphate. A digest of the protocol: as §1
Turning to AUAAAAGCGCCAGAACUACAGAAAUGUAGUUGACGACGAGGAGGUUUAUCGAAUUUUCGGCGGAUGCGUCCAAA [G37C C68G], the “self-cleavage kobs at 160 uM GlcN6P” value came out at 2e-05 ± 1.7e-05 s⁻¹. For the variant AUAAAAGCGCCAGAACUACAGAAAUGUAGUUGACGAAGAGGAGGUUUAUGGAACUUUCGGCGGAUGCCUCCAAA [G37A C50G U54C], the “self-cleavage kobs at 160 uM GlcN6P” value worked out at 5.14e-05 ± 2.6e-05 s⁻¹. Still for that read-out and setting: the figure for AUAAAAGCGCCAGAACUACAGAAAUGUAGUUGCCGAGGAGGAGGUUUAUGGAAUUUUCGGCGGAUGCCUCCAAA [A33C C50G] is 0.000511 ± 0.00033 s⁻¹.

Variants of B1 are the subject of the next data set. The data set can be described thus: self-cleavage kobs at 10000 uM GlcN6P; higher = faster cleavage; RNA array. The note with it: with glucosamine-6-phosphate. The gist of the method: as §1
Consider AUAAAAGCGCCAGAACUACAGAAAUGUAGUUGAAGAGGAGGAGGUUUAUGGAAUUUUCGGCGGAUGCCUCCAAA [C34A C50G], for which the “self-cleavage kobs at 10000 uM GlcN6P” value was 1.7e-05 ± 1.4e-05 s⁻¹. For AUAAAAGCGCCAGAACUACAGAAAUGUAGUUGAUGAGGAGGAGGUUUAUGGAAUUUUCGGCGGAUGCCUCCAAA [C34U C50G], the “self-cleavage kobs at 10000 uM GlcN6P” value amounted to 0.00034 ± 0.0003 s⁻¹.

Variants of B1 are the subject of another data set. The data set can be described thus: KM; higher = weaker cofactor use; RNA array. The note with it: with glucosamine-6-phosphate. A digest of the protocol:
as §1
With AUAAAAGCGCCAGAACUACAGAAAUGUAGUUGACGACGUGGAGGUUUAUCGAAUUUUCGGCGGAUGCCUCCAAA [G37C A39U], the KM is 1230 ± 450 µM.
